At least one structure is not confirmed: it was looked up by name or label, or the drawing left a doubt.
How the values were obtained:
SW1573 xenografts = assay: In vivo tumor growth of subcutaneous xenografts; design: species or system female SCID mice; details: AMG510 25 mg/kg i.p. and/or tipifarnib 40 mg/kg i.p., daily except weekends
Procedure: H358 and SW1573 human lung adenocarcinoma cells (5×10^6 and 1×10^6, respectively) were subcutaneously injected in female SCID mice. Cells were injected in 200 μl DMEM:Matrigel mixture (ratio 1:1) based on preliminary experiments. When tumor reached approximately 100 mm^3 (H358 7 days, SW1573 26 days after injection), animals were randomized and treated intraperitoneally daily except for weekends. Drugs were dissolved in 60% DPBS, 34% PEG300, 5% DMSO and 1% Tween80. […] Controls received vehicle. Doses were determined based on previous literature, roughly using half of the used per os doses. The subcutaneous tumors were measured with a caliper and tumor volumes were calculated with the formula […] and expressed in mm^3. H358 experiment was terminated after 18 days and SW1573 after 25 days treatment. Tumors were measured upon harvest, then fixed with 4% PFA for histological analyses.
Animals were the properties of the Department of Experimental Pharmacology, National Institute of Oncology, H-1122, Budapest, Hungary. All experiments were carried out in accordance with the Guidelines for Animal Experiments and were approved for the Department of Experimental Pharmacology in the National Institute of Oncology, Budapest, Hungary.

[1] = test system: KRAS4B, HRAS, NRAS in SW1573 cells; assay: Western blotting of RAS proteins (farnesylation shift); assay type: cell-based, human; details: 48 hours, 500 nM tipifarnib
cancer patients = details: non-small-cell lung cancer, small-cell lung cancer or breast cancer; cited from earlier work
[2] = test system: GTP-bound KRAS4B, HRAS, NRAS in SW1573 cells; assay: Active RAS pulldown (GTP-bound RAS); assay type: cell-based, human; details: 48 hours, 100 nM sotorasib and/or 500 nM tipifarnib

**Q.** For `Cn1cncc1[C@@](N)(c1ccc(Cl)cc1)c1ccc2c(c1)c(-c1cccc(Cl)c1)cc(=O)n2C` [tipifarnib], which “Inhibition of tumor growth (in words)” value (SW1573 xenografts) is on record?
**A.** strong tumor inhibition

**Q.** What about the “Interference with KRAS4B and NRAS (western blot)” value [1] of the same compound?
**A.** did not interfere

**Q.** What about the “Antitumor activity or objective response rates” value (cancer patients) of the same compound?
**A.** no significant antitumor activity

**Q.** And the GTP-HRAS level [2]?
**A.** mainly found at the non-prenylated fraction
